Laboratory results: PubChem BioAssay AID1259308 (NCATS, 2017)

Purpose: 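Genes whose loss raises luciferase production in HEK293 cells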 (primary screen)
System: human HEK293 embryonic kidney cells stably expressing firefly luciferase (HEK-CMV-Luc2-Hygro)
Knock-down reagent: single siRNA against human genes, 0.8 pmol siRNA per well
Timing: 72 h
Detection: 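Luciferase light (ONE-Glo) measured on one replicate plate set and viability (CellTiter-Glo) on the other, scaled to a negative control siRNA, with robust z-scores and luciferase per cell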
Scale: total luciferase, z-score and total luciferase, % of control: higher = more reporter protein produced
Hit rule: 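Active when the median/MAD z-score for overall luciferase is greater than 3; a gene was taken forward for validation with new siRNAs if at least two of its three siRNAs passed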
Calls: active = raised luciferase; inactive = no rise
This is a random part of about 59,000 reagents. About 1,510 of all reagents (2.6%) count as active. 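Calls use total luciferase alone and ignore viability, so some active siRNAs may act by altering cell number.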 The numbers tell different reagents against one gene apart. Not all columns of the deposit are shown. No sequences are given here.

| Target gene | reagent | total luciferase, z-score | total luciferase, % of control | outcome |
| --- | --- | --- | --- | --- |
| THBS4 | 1 | 0.261 | 87.1 | inactive |
| THBS4 | 2 | 0.0974 | 83.8 | inactive |
| THBS4 | 3 | 0.0913 | 83.7 | inactive |
| SPC24 | 1 | 0.155 | 85 | inactive |
| SPC24 | 2 | -0.304 | 75.8 | inactive |
| SPC24 | 3 | -0.62 | 69.6 | inactive |
| RNF216 | 1 | 1.21 | 106 | inactive |
| RNF216 | 2 | -0.0392 | 81.1 | inactive |
| RNF216 | 3 | -0.398 | 74 | inactive |
| INHA | 1 | -0.5 | 71.9 | inactive |
| INHA | 2 | 1.04 | 103 | inactive |
| INHA | 3 | -0.697 | 68 | inactive |
| PRNP | 1 | 0.259 | 87 | inactive |
| PRNP | 2 | -0.623 | 69.5 | inactive |
| PRNP | 3 | 1.61 | 114 | inactive |
| DDX3X | 1 | -0.0407 | 81.1 | inactive |
| DDX3X | 2 | 0.438 | 90.6 | inactive |
| DDX3X | 3 | 1.93 | 120 | inactive |
| NUMA1 | 1 | 0.0688 | 83.3 | inactive |
| NUMA1 | 2 | 0.956 | 101 | inactive |
| NUMA1 | 3 | -1.81 | 46 | inactive |
| RPL6 | 1 | -2.94 | 23.3 | inactive |
| RPL6 | 2 | -1.94 | 43.3 | inactive |
| RPL6 | 3 | -3.24 | 17.5 | inactive |
| HIBCH | 1 | 0.287 | 87.6 | inactive |
| HIBCH | 2 | -1.39 | 54.2 | inactive |
| HIBCH | 3 | -0.86 | 64.8 | inactive |
| SLC17A5 | 1 | 0.839 | 98.6 | inactive |
| SLC17A5 | 2 | 1.18 | 105 | inactive |
| SLC17A5 | 3 | 0.244 | 86.7 | inactive |
| POU1F1 | 1 | 1.29 | 108 | inactive |
| POU1F1 | 2 | 2.12 | 124 | inactive |
| POU1F1 | 3 | -1.74 | 47.3 | inactive |
| MORN4 | 1 | -0.466 | 72.6 | inactive |
| MORN4 | 2 | -0.602 | 69.9 | inactive |
| MORN4 | 3 | -0.568 | 70.6 | inactive |
| DCAF8L1 | 1 | 0.156 | 85 | inactive |
| DCAF8L1 | 2 | 0.396 | 89.8 | inactive |
| DCAF8L1 | 3 | 0.294 | 87.7 | inactive |

Only “total luciferase, z-score”, for 2 of the entries above:
SLC17A5 #3: 0.244
POU1F1 #1: 1.29
